Assay results published in patent US8461328B2, “Tricyclic heterocyclic compounds, compositions and methods of use thereof” (Genentech, Inc., priority 2010, dated 2013).
Where a name gives a salt, the structure may show the parent alone. Some entries share one result that the patent states for a list of compounds.

Amino acid sequences for entries named in this document (tags omitted). Residues count along the entry.
UniProt P23458, 852-1154: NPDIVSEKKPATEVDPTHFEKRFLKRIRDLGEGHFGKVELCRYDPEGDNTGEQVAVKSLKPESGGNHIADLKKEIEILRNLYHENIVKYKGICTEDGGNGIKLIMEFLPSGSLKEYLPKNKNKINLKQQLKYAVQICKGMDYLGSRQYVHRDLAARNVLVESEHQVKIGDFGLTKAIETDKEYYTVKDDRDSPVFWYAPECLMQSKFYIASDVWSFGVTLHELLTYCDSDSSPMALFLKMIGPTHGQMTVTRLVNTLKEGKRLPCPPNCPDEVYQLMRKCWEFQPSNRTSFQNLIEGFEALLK

Target: T1, human JAK1 kinase domain (Homo sapiens, UniProt P23458)
T1 construct: made in house; host or cells: SF9 insect cells (baculovirus)
Assay: JAK1 inhibition assay (Example B), Caliper LabChip peptide phosphorylation
Assay type: biochemical
Conditions: 1.5 nM JAK1, 25 μM ATP, Morrison tight binding model; read-out: Ki in a JAK1 kinase activity assay (Example B)

Ki [nM]	SMILES
< 500	CC(=O)N1CCC(N[C@H]2CC[C@H](n3cnc4cnc5[nH]ccc5c43)CC2)CC1 [Example 555, trans 1-{4-[4-(6H-1,3,5,6-Tetraaza-as-indacen-1-yl)-cyclohexylamino]-piperidin-1-yl}-ethanone]
< 500	CC(C)(C)OC(=O)N1CCC[C@@H]1CN[C@H]1CC[C@H](n2cnc3cnc4[nH]ccc4c32)CC1 [Example 556, trans (R)-2-{[4-(6H-1,3,5,6-Tetraaza-as-indacen-1-yl)-cyclohexylamino]-methyl}-pyrrolidine-1-carboxylic acid tert-butyl ester]
< 500	CC(C)(C)OC(=O)N1CC(CN[C@H]2CC[C@H](n3cnc4cnc5[nH]ccc5c43)CC2)C1 [Example 557, trans 3-{[4-(6H-1,3,5,6-Tetraaza-as-indacen-1-yl)-cyclohexylamino]-methyl}-azetidine-1-carboxylic acid tert-butyl ester]
< 500	CC(C)(C)OC(=O)N1CCC(N[C@H]2CC[C@H](n3cnc4cnc5[nH]ccc5c43)CC2)CC1 [Example 558, trans 4-[4-(6H-1,3,5,6-Tetraaza-as-indacen-1-yl)-cyclohexylamino]-piperidine-1-carboxylic acid tert-butyl ester]
< 500	CC(C)(C)OC(=O)N1CCCC[C@@H]1CN[C@H]1CC[C@H](n2cnc3cnc4[nH]ccc4c32)CC1 [Example 563, trans (R)-2-{[4-(6H-1,3,5,6-Tetraaza-as-indacen-1-yl)-cyclohexylamino]-methyl}-piperidine-1-carboxylic acid tert-butyl ester]
< 500	CC(C)(C)OC(=O)N1CCCC[C@H]1CN[C@H]1CC[C@H](n2cnc3cnc4[nH]ccc4c32)CC1 [Example 564, trans (S)-2-{[4-(6H-1,3,5,6-Tetraaza-as-indacen-1-yl)-cyclohexylamino]-methyl}-piperidine-1-carboxylic acid tert-butyl ester]
< 500	CC(C)(C)OC(=O)N1CCC[C@H](CN[C@H]2CC[C@H](n3cnc4cnc5[nH]ccc5c43)CC2)C1 [Example 565, trans (R)-3-{[4-(6H-1,3,5,6-Tetraaza-as-indacen-1-yl)-cyclohexylamino]-methyl}-piperidine-1-carboxylic acid tert-butyl ester]
< 500	CC(C)(C)OC(=O)N1CCC[C@@H](CN[C@H]2CC[C@H](n3cnc4cnc5[nH]ccc5c43)CC2)C1 [Example 566, trans (S)-3-{[4-(6H-1,3,5,6-Tetraaza-as-indacen-1-yl)-cyclohexylamino]-methyl}-piperidine-1-carboxylic acid tert-butyl ester]
< 500	N#CCN1CCC(N[C@H]2CC[C@H](n3cnc4cnc5[nH]ccc5c43)CC2)CC1 [Example 568, trans {4-[4-(6H-1,3,5,6-Tetraaza-as-indacen-1-yl)-cyclohexylamino]-piperidin-1-yl}-acetonitrile]
< 500	CC(C)CN[C@H]1CC[C@H](n2cnc3cnc4[nH]ccc4c32)CC1 [Example 569, trans Isobutyl-[4-(6H-1,3,5,6-tetraaza-as-indacen-1-yl)-cyclohexyl]-amine]
< 500	O=C(N[C@H]1CC[C@H](n2cnc3cnc4[nH]ccc4c32)CC1)c1ccncc1 [Example 570, trans N-[4-(6H-1,3,5,6-Tetraaza-as-indacen-1-yl)-cyclohexyl]-isonicotinamide]
< 500	O=C(N[C@H]1CC[C@H](n2cnc3cnc4[nH]ccc4c32)CC1)C1CC1 [Example 572, trans Cyclopropanecarboxylic acid [4-(6H-1,3,5,6-tetraaza-as-indacen-1-yl)-cyclohexyl]-amide]
< 500	COCCC(=O)N[C@H]1CC[C@H](n2cnc3cnc4[nH]ccc4c32)CC1 [Example 573, trans 3-Methoxy-N-[4-(6H-1,3,5,6-tetraaza-as-indacen-1-yl)-cyclohexyl]-propionamide]
< 500	Cn1cncc1CN[C@H]1CC[C@H](n2cnc3cnc4[nH]ccc4c32)CC1 [Example 575, trans (3-Methyl-3H-imidazol-4-ylmethyl)-[4-(6H-1,3,5,6-tetraaza-as-indacen-1-yl)-cyclohexyl]-amine]
< 500	CC1(n2cnc3cnc4[nH]ccc4c32)CCN(C(=O)CC#N)CC1 [Example 579, 3-[4-Methyl-4-(6H-1,2,3,5,6-tetraaza-as-indacen-1-yl)-piperidin-1-yl]-3-oxo-propionitrile]
< 500	Cc1nc2cnc3[nH]ccc3c2n1C1(C)CCN(S(C)(=O)=O)CC1 [Example 580, 1-(1-Methanesulfonyl-4-methyl-piperidin-4-yl)-2-methyl-1,6-dihydro-1,2,3,5,6-tetraaza-as-indacene]
< 500	Cc1nc2cnc3[nH]ccc3c2n1C1(C)CCN(CCC#N)CC1 [Example 581, 3-[4-Methyl-4-(2-methyl-6H-1,2,3,5,6-tetraaza-as-indacen-1-yl)-piperidin-1-yl]-propionitrile]
< 500	CC1(n2nnc3cnc4[nH]ccc4c32)CCN(CCC#N)CC1 [Example 582, 3-[4-Methyl-4-(6H-1,2,3,5,6-pentaaza-as-indacen-1-yl)-piperidin-1-yl]-propionitrile]

Ki [nM]	SMILES
< 500	CC1(n2nnc3cnc4[nH]ccc4c32)CCN(S(=O)(=O)c2cccnc2)CC1 [Example 584, 1-[4-Methyl-1-(pyridine-3-sulfonyl)-piperidin-4-yl]-1,6-dihydro-1,2,3,5,6-pentaaza-as-indacene]
< 500	C[C@@H](O)c1nc2cnc3[nH]ccc3c2n1C1(C)CCN(S(C)(=O)=O)CC1 [Example 585, (R)-1-[1-(1-Methanesulfonyl-4-methyl-piperidinyl)-1,6-dihydro-1,2,3,5,6-tetraaza-as-indacen-2-yl]-ethanol]
< 500	CC(C)(C#N)CN1CCC(n2cnc3cnc4[nH]ccc4c32)CC1 [Example 586, 2,2-Dimethyl-3-[4-(6H-1,2,3,5,6-tetraaza-as-indacen-1-yl)-piperidin-1-yl]-propionitrile]
< 500	Cc1nc2cnc3[nH]ccc3c2n1C1CCN(CC(F)(F)F)CC1 [Example 587, 2-Methyl-1-[1-(2,2,2-trifluoro-ethyl)-piperidin-4-yl]-1,6-dihydro-1,2,3,5,6-tetraaza-as-indacene]
< 500	NCC(F)(F)c1nc2cnc3[nH]ccc3c2n1C1CCN(Cc2cccnc2)CC1 [Example 588, 2,2-Difluoro-2-[1-(1-pyridin-3-ylmethyl-piperidin-4-yl)-1,6-dihydro-1,2,3,5,6-tetraaza-as-indacen-2-yl]-ethylamine]
< 500	Cc1nc2cnc3[nH]ccc3c2n1[C@H]1CC[C@H](NC(C)CC#N)CC1 (stereo partly drawn) [Example 590, Trans 3-[4-(2-methyl-6H-1,2,3,5,6-tetraaza-as-indacen-1-yl)-cyclohexylamino]-butyronitrile]
< 500	Cc1nc2cnc3[nH]ccc3c2n1[C@H]1CC[C@H](NCC(F)(F)F)CC1 [Example 591, Trans[4-(2-methyl-6H-1,2,3,5,6-tetraaza-as-indacen-1-yl)-cyclohexyl]-(2,2,2-trifluoro-ethyl)-amine]
< 500	COCCNC(=O)N(C)[C@H]1CC[C@H](n2cnc3cnc4[nH]ccc4c32)CC1 [Example 592, Trans 3-(2-Methoxy-ethyl)-1-methyl-1-[4-(6H-1,2,3,5,6-tetraaza-as-indacen-1-yl)-cyclohexyl]-urea]
< 500	O=C(N[C@H]1CC[C@H](n2cnc3cnc4[nH]ccc4c32)CC1)N1CCOCC1 [Example 593, Trans Morpholine-4-carboxylic acid [4-(6H-1,2,3,5,6-tetraaza-as-indacen-1-yl)-cyclohexyl]-amide]
< 500	COCCNC(=O)O[C@H]1CC[C@H](n2cnc3cnc4[nH]ccc4c32)CC1 [Example 595, Trans (2-methoxy-ethyl)-carbamic acid 4-(6H-1,2,3,5,6-tetraaza-as-indacen-1-yl)-cyclohexyl ester]
< 500	Cc1nc2cnc3[nH]ccc3c2n1[C@H]1CC[C@H](N2CCNC2=O)CC1 [Example 598, Trans 1-[4-(2-methyl-6H-1,2,3,5,6-tetraaza-as-indacen-1-yl)-cyclohexyl]-imidazolidin-2-one formic acid salt]
< 500	CC(=O)NCCOC(=O)N[C@H]1CC[C@H](n2cnc3cnc4[nH]ccc4c32)CC1 [Example 599, Trans[4-(6H-1,2,3,5,6-tetraaza-as-indacen-1-yl)-cyclohexyl]-carbamic acid 2-acetylamino-ethyl ester]
< 500	COC(=O)N[C@H]1CC[C@H](n2c(CO)nc3cnc4[nH]ccc4c32)CC1 [Example 600, Trans[4-(2-hydroxymethyl-6H-1,2,3,5,6-tetraaza-as-indacen-1-yl)-cyclohexyl]-carbamic acid methyl ester]
< 500	O=C(N[C@H]1CC[C@H](n2c(CO)nc3cnc4[nH]ccc4c32)CC1)OCC1CC1 [Example 601, Trans[4-(2-hydroxymethyl-6H-1,2,3,5,6-tetraaza-as-indacen-1-yl)-cyclohexyl]-carbamic acid cyclopropylmethyl ester]
< 500	O=C1OC(CO)CN1[C@H]1CC[C@H](n2cnc3cnc4[nH]ccc4c32)CC1 (stereo partly drawn) [Example 602, Trans 5-hydroxymethyl-3-[4-(6H-1,2,3,5,6-tetraaza-as-indacen-1-yl)-cyclohexyl]-oxazolidin-2-one]
< 500	CN(C)C(=O)N[C@H]1CC[C@H](n2cnc3cnc4[nH]ccc4c32)CC1 [Example 603, Trans 1,1-dimethyl-3-[4-(6H-1,2,3,5,6-tetraaza-as-indacen-1-yl)-cyclohexyl]-urea]
< 500	Cc1nc2cnc3[nH]ccc3c2n1[C@H]1CC[C@H](NC(=O)N(C)C)CC1 [Example 604, Trans 1,1-dimethyl-3-[4-(2-methyl-6H-1,2,3,5,6-tetraaza-as-indacen-1-yl)-cyclohexyl]-urea]
< 500	Cc1nc2cnc3[nH]ccc3c2n1[C@H]1CC[C@H](OC(=O)N(C)C)CC1 [Example 605, Trans dimethyl-carbamic acid 4-(2-methyl-6H-1,2,3,5,6-tetraaza-as-indacen-1-yl)-cyclohexyl ester]
